Measurements as given in article PMC6683245.

The chains behind the UniProt entries cited, without tags or fusion partners. Residues count along the entry.
UniProt P58154, residues 20-229: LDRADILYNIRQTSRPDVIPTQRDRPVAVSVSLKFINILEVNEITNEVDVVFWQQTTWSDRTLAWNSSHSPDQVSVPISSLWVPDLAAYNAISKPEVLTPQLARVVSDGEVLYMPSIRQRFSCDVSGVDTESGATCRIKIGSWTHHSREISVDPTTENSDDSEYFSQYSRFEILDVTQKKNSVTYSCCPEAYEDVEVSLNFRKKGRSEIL

B1: venom nerve growth factor (vNGF) of Naja kaouthia venom (protein, UniProt P61899 1-116)
chain: EDHPVHNLGEHSVCDSVSAWVTKTTATDIKGNTVTVMENVNLDNKVYKEYFFETKCKNPNPEPSGCRGIDSSHWNSYCTETDTFIKALTMEGNQASWRFIRIETACVCVITKKKGN

Columns and labels:
[1] = biological target: acetylcholine binding protein from Lymnaea stagnalis (Ls-AChBP) (Lymnaea stagnalis) (UniProt P58154); assay: affinity purification with mass spectrometry; only the target purified
[2] = biological target: acetylcholine binding protein from Lymnaea stagnalis (Ls-AChBP) (Lymnaea stagnalis) (UniProt P58154); assay: as above; remark: listed apart in the source

Molecule | binding [1] | binding [2]
venom nerve growth factor (vNGF) of Naja naja venom (from UniProt P01140 1-116) | binds | 
α-δ-bungarotoxin 4 (from UniProt D2N116 3-76) | binds | 
B1 |  | binds

Read-outs that look alike come from different tables or passages of the source. These are yes or no findings as the source states them, for the method shown. In cells and extracts the contact can be indirect. Here binding means that the protein was enriched with, or labelled near, the bait; the list need not be complete.
